The list shows a part of the results.
Columns and labels:
Experiment in all cases: log2 fold change, soluble protein after heating vs DMSO (PISA); higher = thermal stabilisation; K562 lysate, 10 uM; active = over 0.2 and 3.5 SD of the protein, either way, in both replicates (recomputed)
lapatinib = compound: CS(=O)(=O)CCNCc1ccc(-c2ccc3ncnc(Nc4ccc(OCc5cccc(F)c5)c(Cl)c4)c3c2)o1 [lapatinib]
Outline: (§1)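 Soluble protein was defined as the supernatant remaining after 21,000xg for 90 min, following pooling of heated aliquots and adjustment to 0.5% NP-40 at 4°C. Before that, crude K562 extract at 1 mg/mL protein in PBS pH 7.4 with 1 mM MgCl2 was treated with 10 μM compound for 30 min and heated for 3 min across 48°C-58°C. Quantification used TMTpro 16plex LC-MS/MS with channel sums equalised, and values are log-two fold changes in thermal stability relative to solvent controls from duplicates.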

Amino acid sequences for entries named in this document (tags omitted). A change or cut given only in a name is not applied to a line headed by its entry.
UniProt P08174: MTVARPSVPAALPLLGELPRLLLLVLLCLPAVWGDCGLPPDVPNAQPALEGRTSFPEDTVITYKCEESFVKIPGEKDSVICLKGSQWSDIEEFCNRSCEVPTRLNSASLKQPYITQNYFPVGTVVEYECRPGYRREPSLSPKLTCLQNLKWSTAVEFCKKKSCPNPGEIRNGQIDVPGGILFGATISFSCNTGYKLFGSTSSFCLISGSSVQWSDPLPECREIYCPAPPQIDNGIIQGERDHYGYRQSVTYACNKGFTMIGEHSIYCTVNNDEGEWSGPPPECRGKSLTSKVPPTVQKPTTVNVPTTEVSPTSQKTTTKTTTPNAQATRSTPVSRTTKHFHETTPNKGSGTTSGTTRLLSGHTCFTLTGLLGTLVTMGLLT
UniProt Q92526, whole entry, looked up: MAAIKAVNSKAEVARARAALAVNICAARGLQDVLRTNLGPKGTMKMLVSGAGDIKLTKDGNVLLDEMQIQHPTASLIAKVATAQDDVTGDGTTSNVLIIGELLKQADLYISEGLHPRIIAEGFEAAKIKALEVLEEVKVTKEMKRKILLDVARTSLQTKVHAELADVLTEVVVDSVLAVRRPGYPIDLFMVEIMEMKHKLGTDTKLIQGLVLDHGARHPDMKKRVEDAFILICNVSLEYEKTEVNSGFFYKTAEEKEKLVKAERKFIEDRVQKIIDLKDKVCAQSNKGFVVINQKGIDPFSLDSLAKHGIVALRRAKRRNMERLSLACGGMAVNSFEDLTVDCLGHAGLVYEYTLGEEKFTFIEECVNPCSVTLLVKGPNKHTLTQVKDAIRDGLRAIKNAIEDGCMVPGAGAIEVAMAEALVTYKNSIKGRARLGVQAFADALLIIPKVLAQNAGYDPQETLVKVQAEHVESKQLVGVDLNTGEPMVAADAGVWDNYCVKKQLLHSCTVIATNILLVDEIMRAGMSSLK
UniProt O43439: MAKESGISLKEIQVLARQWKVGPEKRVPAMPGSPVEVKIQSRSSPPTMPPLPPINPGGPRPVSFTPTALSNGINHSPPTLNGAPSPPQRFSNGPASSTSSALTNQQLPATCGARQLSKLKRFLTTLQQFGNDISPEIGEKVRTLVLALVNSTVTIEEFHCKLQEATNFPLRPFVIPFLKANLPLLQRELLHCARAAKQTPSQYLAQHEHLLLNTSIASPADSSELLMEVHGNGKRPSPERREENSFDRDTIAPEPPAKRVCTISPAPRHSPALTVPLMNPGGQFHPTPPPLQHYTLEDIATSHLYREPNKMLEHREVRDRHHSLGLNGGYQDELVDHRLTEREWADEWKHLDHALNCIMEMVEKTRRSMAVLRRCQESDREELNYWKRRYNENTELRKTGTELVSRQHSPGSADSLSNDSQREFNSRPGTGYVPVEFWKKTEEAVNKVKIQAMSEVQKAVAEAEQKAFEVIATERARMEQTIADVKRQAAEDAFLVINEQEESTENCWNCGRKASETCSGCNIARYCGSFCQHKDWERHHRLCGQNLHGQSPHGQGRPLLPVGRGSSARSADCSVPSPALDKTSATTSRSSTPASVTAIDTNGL
UniProt Q9UKL3: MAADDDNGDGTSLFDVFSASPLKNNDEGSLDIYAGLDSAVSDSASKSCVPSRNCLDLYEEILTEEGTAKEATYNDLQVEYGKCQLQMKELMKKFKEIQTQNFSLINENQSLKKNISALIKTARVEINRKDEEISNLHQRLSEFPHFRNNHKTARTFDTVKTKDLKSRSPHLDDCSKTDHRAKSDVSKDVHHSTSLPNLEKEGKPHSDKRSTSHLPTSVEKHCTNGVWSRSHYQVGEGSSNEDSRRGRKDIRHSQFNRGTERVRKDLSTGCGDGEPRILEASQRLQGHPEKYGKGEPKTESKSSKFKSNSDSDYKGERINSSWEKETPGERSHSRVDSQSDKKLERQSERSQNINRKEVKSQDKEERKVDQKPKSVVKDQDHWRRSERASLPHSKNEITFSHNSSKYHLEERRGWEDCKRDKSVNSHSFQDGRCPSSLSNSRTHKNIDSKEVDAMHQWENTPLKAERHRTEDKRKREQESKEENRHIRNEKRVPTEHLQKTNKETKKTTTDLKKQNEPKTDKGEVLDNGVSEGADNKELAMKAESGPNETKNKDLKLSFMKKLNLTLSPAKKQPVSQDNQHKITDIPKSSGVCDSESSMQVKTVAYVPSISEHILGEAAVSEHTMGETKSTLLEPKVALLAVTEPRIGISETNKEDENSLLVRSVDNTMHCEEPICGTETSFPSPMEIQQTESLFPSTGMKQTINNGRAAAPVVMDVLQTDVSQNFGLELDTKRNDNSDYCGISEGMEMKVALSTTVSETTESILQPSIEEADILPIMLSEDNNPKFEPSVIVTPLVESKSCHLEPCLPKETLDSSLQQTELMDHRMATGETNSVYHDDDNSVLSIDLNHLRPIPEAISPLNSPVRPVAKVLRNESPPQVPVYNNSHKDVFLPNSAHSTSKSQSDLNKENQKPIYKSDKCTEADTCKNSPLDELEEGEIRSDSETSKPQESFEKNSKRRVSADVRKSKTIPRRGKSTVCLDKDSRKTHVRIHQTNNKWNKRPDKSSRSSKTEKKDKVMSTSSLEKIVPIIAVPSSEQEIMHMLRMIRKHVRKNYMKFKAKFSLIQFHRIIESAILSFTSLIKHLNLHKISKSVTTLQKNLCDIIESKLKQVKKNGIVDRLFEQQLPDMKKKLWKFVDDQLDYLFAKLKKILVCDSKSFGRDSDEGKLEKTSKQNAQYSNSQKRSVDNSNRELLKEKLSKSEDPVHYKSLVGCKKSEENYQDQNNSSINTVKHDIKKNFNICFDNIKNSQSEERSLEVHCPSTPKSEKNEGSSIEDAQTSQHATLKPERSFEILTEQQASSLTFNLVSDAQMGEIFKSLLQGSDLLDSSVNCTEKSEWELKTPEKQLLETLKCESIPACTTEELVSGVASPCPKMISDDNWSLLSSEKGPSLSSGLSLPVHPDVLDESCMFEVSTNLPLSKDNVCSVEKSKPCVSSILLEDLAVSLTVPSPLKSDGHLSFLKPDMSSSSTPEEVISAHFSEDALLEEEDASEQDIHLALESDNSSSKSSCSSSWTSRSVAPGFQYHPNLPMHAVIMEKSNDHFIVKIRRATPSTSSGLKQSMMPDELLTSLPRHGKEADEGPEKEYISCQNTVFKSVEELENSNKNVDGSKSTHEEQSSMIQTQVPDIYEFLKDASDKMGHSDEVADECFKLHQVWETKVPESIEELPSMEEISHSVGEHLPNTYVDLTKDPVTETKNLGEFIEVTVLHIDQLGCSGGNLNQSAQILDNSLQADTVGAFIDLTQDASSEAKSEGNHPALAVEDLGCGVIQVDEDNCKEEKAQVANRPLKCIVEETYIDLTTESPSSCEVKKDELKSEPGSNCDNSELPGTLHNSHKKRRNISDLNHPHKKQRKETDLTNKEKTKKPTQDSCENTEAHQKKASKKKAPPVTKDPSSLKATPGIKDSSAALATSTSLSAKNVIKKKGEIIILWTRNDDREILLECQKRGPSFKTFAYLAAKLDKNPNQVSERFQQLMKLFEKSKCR

pictilisib = compound: CS(=O)(=O)N1CCN(Cc2cc3nc(-c4cccc5[nH]ncc45)nc(N4CCOCC4)c3s2)CC1 [pictilisib]
Outline: as §1

crizotinib = compound: C[C@@H](Oc1cc(-c2cnn(C3CCNCC3)c2)cnc1N)c1c(Cl)ccc(F)c1Cl [crizotinib]
Outline: as §1

[1] = compound: C[C@H](C1=CC=C(C=C1)C(=O)NC2=C3C=CNC3=NC=C2)N
Outline: as §1

duvelisib = compound: C[C@H](Nc1ncnc2nc[nH]c12)c1cc2cccc(Cl)c2c(=O)n1-c1ccccc1 [duvelisib]
Outline: as §1

gandotinib = compound: Cc1cc(Nc2cc(CN3CCOCC3)c3nc(C)c(Cc4ccc(Cl)cc4F)n3n2)n[nH]1 [gandotinib]
Outline: as §1

tozasertib = compound: Cc1cc(Nc2cc(N3CCN(C)CC3)nc(Sc3ccc(NC(=O)C4CC4)cc3)n2)n[nH]1 [tozasertib]
Outline: as §1

doramapimod = compound: Cc1ccc(-n2nc(C(C)(C)C)cc2NC(=O)Nc2ccc(OCCN3CCOCC3)c3ccccc23)cc1 [doramapimod]
Outline: as §1

bafetinib = compound: Cc1ccc(NC(=O)c2ccc(CN3CC[C@H](N(C)C)C3)c(C(F)(F)F)c2)cc1Nc1nccc(-c2cncnc2)n1 [bafetinib]
Outline: as §1

[2] = compound: Cc1cccc(CC(=O)N2CCc3c2ccc(-c2cn(C)c4ncnc(N)c24)c3F)n1
Outline: as §1

nilotinib = compound: Cc1cn(-c2cc(NC(=O)c3ccc(C)c(Nc4nccc(-c5cccnc5)n4)c3)cc(C(F)(F)F)c2)cn1 [nilotinib]
Outline: as §1

[3] = compound: Cc1nc(Nc2n[nH]c3c2CN(C(=O)N[C@H](CN(C)C)c2ccccc2)C3(C)C)c2sccc2n1
Outline: as §1

dasatinib = compound: Cc1nc(Nc2ncc(C(=O)Nc3c(C)cccc3Cl)s2)cc(N2CCN(CCO)CC2)n1 [dasatinib]
Outline: as §1

[4] = compound: Cc1ncc(-c2ccnc(Nc3ccc(S(C)(=O)=O)cc3)n2)n1C(C)C
Outline: as §1

[5] = compound: Cn1cc(-c2ccc3c(c2)CCN3C(=O)Cc2cccc(C(F)(F)F)c2)c2c(N)ncnc21
Outline: as §1

quisinostat = compound: Cn1cc(CNCC2CCN(c3ncc(C(=O)NO)cn3)CC2)c2ccccc21 [quisinostat]
Outline: as §1

tipifarnib = compound: Cn1cncc1[C@@](N)(c1ccc(Cl)cc1)c1ccc2c(c1)c(-c1cccc(Cl)c1)cc(=O)n2C [tipifarnib]
Outline: as §1

[6] = compound: NC(=O)Nc1cc(-c2cccc(F)c2)sc1C(=O)N[C@H]1CCCNC1
Outline: as §1

[7] = compound: NC(=O)c1cnc(N[C@@H]2CCCC[C@@H]2N)nc1Nc1cccc(-n2nccn2)c1
Outline: as §1

[8] = compound: NC1(c2ccc(-c3nc4ccn5c(=O)[nH]nc5c4cc3-c3ccccc3)cc2)CCC1
Outline: as §1

Measured: log2 fold change

CD55 isoform 7 (UniProt P08174)
inactive: lapatinib -0.028 | pictilisib -0.01 | crizotinib -0.018 | [1] -0.067 | duvelisib 0.087 | gandotinib 0.081 | tozasertib -0.023 | doramapimod 0.05 | bafetinib -0.012 | [2] 0.059 | nilotinib 0.014 | [3] 0.003 | dasatinib 0.022 | [4] 0.001 | [5] 0.042 | quisinostat -0.056 | tipifarnib -0.042 | [6] -0.041 | [7] -0.021 | [8] 0.009

CCT6B (UniProt Q92526)
inactive: lapatinib -0.058 | pictilisib -0.058 | [1] -0.054 | gandotinib -0.087 | bafetinib 0.033 | [2] -0.022 | [7] -0.037

CBFA2T2 isoform 4 (UniProt O43439)
inactive: lapatinib 0.538 | crizotinib -0.041 | [1] -0.084 | duvelisib -0.386 | gandotinib 0.064 | tozasertib -0.169 | doramapimod 0.003 | [2] 0.222 | nilotinib -0.003 | [3] -0.003 | dasatinib 0.036 | [4] 0.004 | [5] -0.131 | quisinostat 0.053 | tipifarnib -0.003 | [6] -0.046 | [7] 0.029 | [8] -0.075

CASP8AP2 (UniProt Q9UKL3)
inactive: pictilisib -0.016 | crizotinib 0.03 | [1] -0.017 | gandotinib 0.013 | tozasertib -0.024 | doramapimod 0.049 | bafetinib 0 | [2] -0.018 | quisinostat -0.045 | [6] -0.029
